# Results taken from the supplement of paper PMC3334620.
# Over roughly 33,000 sequences, “E-score (-0.5 to 0.5)” has its median near -0.015; the highest 2% begin near 0.3. This is one part of the list.
# Molecular target: T1, Abf1 (UniProt P14164)
# T1 sequence: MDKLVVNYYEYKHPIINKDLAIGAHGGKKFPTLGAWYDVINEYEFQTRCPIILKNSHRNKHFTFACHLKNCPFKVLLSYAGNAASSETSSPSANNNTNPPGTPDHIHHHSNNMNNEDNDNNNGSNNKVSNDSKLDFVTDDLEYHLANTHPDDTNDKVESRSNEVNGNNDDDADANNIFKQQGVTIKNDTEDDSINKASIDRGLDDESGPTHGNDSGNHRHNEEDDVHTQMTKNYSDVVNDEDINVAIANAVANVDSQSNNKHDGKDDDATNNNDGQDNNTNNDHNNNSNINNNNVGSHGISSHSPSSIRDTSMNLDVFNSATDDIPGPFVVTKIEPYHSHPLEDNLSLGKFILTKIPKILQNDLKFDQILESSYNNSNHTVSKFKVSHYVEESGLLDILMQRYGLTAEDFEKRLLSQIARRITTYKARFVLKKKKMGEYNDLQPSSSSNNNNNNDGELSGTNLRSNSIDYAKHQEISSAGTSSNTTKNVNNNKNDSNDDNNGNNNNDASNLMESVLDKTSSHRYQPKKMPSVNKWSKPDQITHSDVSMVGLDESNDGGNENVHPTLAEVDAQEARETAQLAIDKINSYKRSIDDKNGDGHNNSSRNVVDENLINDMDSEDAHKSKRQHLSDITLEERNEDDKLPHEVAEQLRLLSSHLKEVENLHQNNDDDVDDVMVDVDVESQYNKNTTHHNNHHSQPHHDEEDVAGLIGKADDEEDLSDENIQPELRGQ
# Assay: PBM E-score (8-mer binding enrichment) (E-score (-0.5 to 0.5)); higher = stronger / more preferred TF binding
# Settings: protein concentration: 200 nM; construct: GST-full length
# Procedure: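 Universal 'all 10-mer' protein binding microarrays (Agilent AMADID 015681) probed with GST-tagged S. cerevisiae TFs (full-length or DBD) made by in vitro transcription/translation (PURExpress), about 100-200 nM. Bound TF was detected with fluorescent anti-GST. Each ungapped 8-mer (which stands for itself and its reverse complement) is scored by the PBM enrichment score (E-score), a modified Wilcoxon-Mann-Whitney statistic from -0.5 to +0.5, computed with the Universal PBM Analysis Suite. Scale: above 0.35 generally sequence-specific binding.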
row,Sequence,PBM E-score
1,GCTCACTA,0.0163
2,CTTAGACC,-0.0387
3,ACCGGCAC,0.0421
4,ACAGTGAG,-0.0226
5,ATGGTAGC,-0.106
6,GACGAACC,0.141
7,ACTTGTAC,0.16
8,CCTCTTCC,-0.286
9,CCAGCGCA,-0.209
10,AAGGTACC,-0.142
11,GTTACAAA,0.183
12,TACCCTCA,-0.182
13,GCCCAGTA,-0.0754
14,AGGGGCTC,-0.266
15,CGCGGTTC,-0.0224
16,TAAGCGTA,-0.184
17,GAGGCACA,-0.278
18,AGGAGGCG,-0.293
19,CTGTCATA,0.12
20,ACCGGTCG,-0.0575
21,CGAGAAGC,0.0598
22,CCCATCAC,-0.112
23,CCCTGATC,-0.249
24,ATCACAGC,0.154
25,AATGGGCC,-0.318

row,Sequence,PBM E-score
1,ACAGAACA,-0.0959
2,ACTCCGCA,-0.0785
3,CCTGCTAC,0.0024
4,CCATGGCA,-0.154
5,TAGGCGCA,0.0489
6,GAAACAGC,-0.121
7,CCGCTAAC,-0.103
8,CACAATCG,-0.00722
9,GCGGAGTA,-0.11
10,ACCCGGGA,-0.0314
11,GTCAGAAC,0.0557
12,CAATATCA,0.283
13,CAGCGGAA,-0.144
14,AGGTTACT,0.024
15,CACCCCGG,-0.121
16,GAAGACGC,-0.0994
17,AATCACAC,0.0654
18,GGAGTTAC,0.13
19,GACGATTA,0.31
20,CCGACCCG,-0.128
21,CAAATGTA,0.214
22,CCGGGTGC,-0.176
23,GCTAAATA,0.121
24,CTATCTTA,-0.149
25,CTCAACAG,-0.0447

row,Sequence,PBM E-score
1,ATGGTGCG,-0.162
2,ACGGCCCT,0.181
3,CTAAGCTC,-0.00188
4,CACTTAAG,0.0851
5,GAGTTTGC,-0.0954
6,GCACGCCC,-0.109
7,GCCCATGA,0.0491
8,GGTCCTCA,-0.0235
9,AATCATGT,0.176
10,AGTCACCA,0.093
11,ATGCCTTA,0.0557
12,ATATTTGA,0.122
13,ACATAACA,0.102
14,AGGTGACA,0.362
15,AATGGCAG,0.00485
16,CCCGTCTA,0.15
17,ACAGACCG,0.00191
18,ACACATCA,0.094
19,CGATTAAC,0.0233
20,CATTACCG,0.0587
21,GAGGGGAC,-0.202
22,ATTGTGCG,-0.143
23,ACAGAGCG,0.056
24,ACTTAAGT,0.0656
25,ACTGTCTC,-0.0997

row,Sequence,PBM E-score
1,TCTGGACA,-0.123
2,CATGAGTA,0.00626
3,AGGATTCG,0.0455
4,AGCTTCGA,-0.0686
5,TCATACGA,0.328
6,CTTTCATC,0.0704
7,GAGCTGAC,-0.103
8,CGCGGCCC,-0.0569
9,ACATGTGG,0.0141
10,AAGTTGGA,0.0871
11,GCCTTAAA,0.0571
12,CTTTAGCA,-0.159
13,CGGAAGAC,0.0364
14,CCATGAGG,-0.117
15,GCAGAAAA,0.0404
16,ACCCATGG,-0.209
17,CGATATTA,0.326
18,CACTATTA,0.137
19,CATCAGAC,-0.02
20,ACGCCCAT,0.0437
21,CGTTAGGA,0.152
22,CGGTTTAA,-0.067
23,AGCTCCCA,-0.296
24,GTAGAGAA,0.073
25,ATTACTGC,0.173

row,Sequence,PBM E-score
1,CACGGTCC,0.0625
2,CCACTTCA,-0.0253
3,AACATCTA,-0.122
4,CCAGAATA,0.0527
5,AAAAACTC,0.00953
6,CCAACTAA,-0.171
7,ACCGTGCA,0.315
8,GATTCTGC,0.11
9,GTGGTAAA,0.0486
10,CAGATTCA,-0.198
11,ACCCTTCC,-0.279
12,ATCCCGAT,-0.0964
13,GCTAATTA,0.0883
14,ATTGAAAA,0.226
15,ACTTCGGC,-0.107
16,GCGATCGA,0.184
17,ATCAAACG,0.145
18,CACTATGA,-0.138
19,ACTATAAT,0.139
20,CCCAACAC,-0.136
21,CCACAAAA,-0.0076
22,ACGTTGCG,-0.0312
23,AGGAAATC,0.083
24,AAATCATC,0.278
25,GCCATAGC,-0.055

row,Sequence,PBM E-score
1,CCTGTAAC,-0.0278
2,AAAAATGT,0.184
3,AGACTCTG,-0.0615
4,CCAAGCAA,-0.178
5,CACGTGCC,0.0511
6,CTGTTTCC,-0.0696
7,AGTTAGAG,-0.111
8,AAGTAGCT,-0.179
9,GTTGTATA,0.0125
10,AAGAGGCA,-0.126
11,AATGATCC,0.0166
12,AGAACAAG,0.0197
13,ACGTGTGC,0.1
14,AAAGTCGG,-0.0861
15,AGAATTGA,-0.159
16,GTTAGTGA,0.17
17,AACGCCGA,0.0805
18,CTGCGACC,-0.212
19,AGCAGTGG,-0.135
20,AGGTCTGA,-0.0227
21,TTATCCAA,0.216
22,GACGGAAC,0.289
23,GACAGCGC,-0.0192
24,AGAAAAAT,0.0843
25,ACTCGAGG,-0.0906

# Look-ups from the entries so far.
# Under PBM E-score, CCTGTAAC has the entry -0.0278
# Under PBM E-score, AACGCCGA has the entry 0.0805

# (further entries)

row,Sequence,PBM E-score
1,CCTTGCCG,-0.203
2,AGCGGAAC,-0.0991
3,CTAGCTTA,0.00624
4,GGACAATA,0.113
5,ATAGCGGA,-0.0437
6,AACTTATG,-0.116
7,CGTAATTC,0.0957
8,CACCCAAC,-0.151
9,ATTGCGTC,-0.0859
10,ACTCTACT,-0.0262
11,ACGACGAA,0.373
12,AGAGAAGA,0.0299
13,CCCCCAGA,-0.326
14,TTGAAAAA,0.0719
15,AAAGTCTT,-0.0882
16,ACTTGCAG,-0.188
17,CTTAACCC,-0.162
18,ATAAGCTA,0.034
19,CGCCAGTC,-0.162
20,AAGCTTGA,-0.178
21,AAGTCAGA,-0.0488
22,CACGGTCA,0.162

# An excerpt of the results above:
row,Sequence,PBM E-score
6,AACTTATG,-0.116
7,CGTAATTC,0.0957
8,CACCCAAC,-0.151
9,ATTGCGTC,-0.0859
